This passage reports concentration results from patent US20130071463A1, “IMPLANTS FOR POS[…]” (priority 2009, published 2013).

A short description of this series: in vivo. The following applies: sheep, plasma, Morphine concentration in plasma, one AC33 and one AC34 implant each.

Regarding `CN1CC[C@]23c4c5ccc(O)c4O[C@H]2[C@@H](O)C=C[C@H]3[C@H]1C5` [Morphine], the concentration at 1 h was 5.4 ng/mL (Average, average of 6 sheep) and 5.3 ng/mL (individual sheep). For the same compound, the concentration at 4 h (Average, average of 6 sheep, 4 Hour) was 8.5 ng/mL.
